Measurements published in PubChem BioAssay AID2417 (National Center for Advancing Translational Sciences (NCATS), 2010).
Hit rate of the full screen: of about 140,000 compounds, about 4,300 (3.1%) were called active. The inconclusive results got no clear call from the source; some entries with a clear call stand among them for comparison.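 How the source made its calls: active means readout at or below -70, meaning at least 70% loss of cells showing the perinucleolar compartment, a nuclear body marking cancer cells; inconclusive means readout between -30 and a set limit; inactive means the rest.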

Assay: High Content Assay for Compounds that inhibit the Assembly of the Perinucleolar Compartment;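 further: plate controls were DMSO wells for no effect and camptothecin positive control wells for full effect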
Conditions: PC3M PTB-GFP, PNC prevalence imaging, 16 h; at 10 µM; active compounds read low
In short: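 PC3M cells stably expressing PTB-GFP, 750–1000 cells/well, treated 16 h at 37 °C with compound (23 nl of library stock), in duplicate. After paraformaldehyde fixation and Hoechst stain, imaged at 20x; PNC prevalence scored by image analysis.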

Row | Structure (SMILES) | activity change (PNC), negative = inhibition
1 | O=C(NCc1ccc2c(c1)OCO2)C1CCCN(S(=O)(=O)c2cccnc2)C1 (stereo unspecified) | inactive: 25.5%
2 | Cc1cc(O)c(C2=Nc3ccccc3SC(c3ccc(Cl)cc3)C2)c(=O)o1 (stereo unspecified) | inactive: -26%
3 | Cc1cc(=O)oc2cc(Oc3ccc([N+](=O)[O-])cc3[N+](=O)[O-])ccc12 | inconclusive: -34.7%
4 | Cc1c(N2C(=O)c3ccccc3C2=O)c(=O)n(-c2ccccc2)n1C | inactive: -19.9%
5 | COc1cc2c(cc1OC)C(C)N(C(=O)c1cc3c(s1)-c1ccccc1OC3)CC2 (stereo unspecified) | inconclusive: -73.4%
6 | COCc1[nH]nc2c1C(c1ccnc3ccccc13)C(C#N)=C(N)O2 (stereo unspecified) | inconclusive: -55.2%
7 | CCC(NC(=O)C1CCC1)c1ccccc1 (stereo unspecified) | active: -100%
8 | C=C(C)COc1ccc2c(C)c(CC(=O)OC)c(=O)oc2c1C | inactive: 29.9%
9 | CCOc1ccc(-c2ccc(C=O)o2)c([N+](=O)[O-])c1 | inconclusive: -52%
10 | COC(=O)CCC(=O)Nc1ccc(S(=O)(=O)N2CCCCCC2)cc1 | inconclusive: -51.1%
11 | CC(=O)N1c2ccccc2C2(O)N=C(C)SC12 (stereo unspecified) | inconclusive: -41.7%
12 | COc1ccc2c(c1)C1NC(=S)NC(C)(O2)C1C(=O)Nc1ccc(Cl)cc1 (stereo unspecified) | inconclusive: -43%
13 | COc1ccc(/C=C/C(=O)NC(=S)NNC(=O)c2cccnc2)cc1 | inconclusive: -39%
14 | Cc1ccccc1-c1nc(CS(=O)(=O)CC(=O)NCCCN2C(C)CCCC2C)c(C)o1 (stereo unspecified) | inconclusive: -32.1%
15 | CC(C)CNC(=O)c1ccccc1SCC(=O)NC12CC3CC(CC(C3)C1)C2 | inconclusive: -64.3%
16 | O=C(NC1CCCCC1)c1cnn2c(C(F)(F)F)cc(-c3ccco3)nc12 | inconclusive: -41.2%
17 | CC(=O)c1ccc(N2CCN(C(=O)c3ccc(NC(=O)C4CCCO4)cc3)CC2)cc1 (stereo unspecified) | inactive: 19.6%
18 | Cc1cccc(C(=O)NC(=S)Nc2ccc(S(=O)(=O)N3CCCCC3)cc2)c1 | inactive: -21.4%
19 | CCCCN=C(NNc1ccc(Br)cc1)C(=O)OCC | inconclusive: -55.2%

Row | Structure (SMILES) | activity change (PNC), negative = inhibition
20 | CNC(=O)c1ccc(-n2nc(C)cc2-c2ccccc2)cc1 | inconclusive: -43.8%
21 | Cc1ccc(-c2noc(CSc3nnc(-c4ccccc4)n3C)n2)cc1 | inconclusive: -55.7%
22 | O=C(/C=C/Nc1ccc(F)cc1)c1ccco1 | inactive: -4.8%
23 | O=C(CCc1ccccc1)NCC(=O)N/N=C/c1ccc2c(c1)OCO2 | inconclusive: -40.6%
24 | COc1ccc(Cl)cc1-c1nc(-c2ccc(Br)o2)no1 | inconclusive: -41.3%
25 | Cc1csc2nc(CNC(=O)c3cccc(C(F)(F)F)c3)cn12 | inactive: 21.2%
26 | Cc1nc2ccc(Nc3nc4cc(S(=O)(=O)N5CCOCC5)ccc4o3)cc2s1 | inconclusive: -35.9%
27 | O=C(NCc1ccccc1)Nc1cccn(Cc2cccc(F)c2)c1=O | inconclusive: -45.3%
28 | CCNc1nnc(-c2ccc(C)cc2)o1 | inconclusive: -46.1%
29 | CCCCOc1ccc(-c2ncc(Cl)cn2)cc1 | inconclusive: -77.9%
30 | O=C(Nc1cccc(S(=O)(=O)Nc2ccccc2Cl)c1)c1ccc(N2CCCC2)c([N+](=O)[O-])c1 | inconclusive: -68.9%
31 | O=C(NCc1ccccc1)c1ccc2nc(-c3ccco3)c(-c3ccco3)nc2c1 | inconclusive: -38.1%
32 | CCOC(=O)CC(=O)CSc1ccc2nnc(-c3ccccc3)n2n1 | inconclusive: -37%
33 | CCCC1CC(C)(C(=O)CSc2n[nH]c(-c3ccccc3)n2)OC1=O (stereo unspecified) | inactive: -7.98%
34 | CCOC(=O)/C(C#N)=C1/SC(CCO)C(=O)N1c1ccccc1 (stereo unspecified) | inconclusive: -33.2%
35 | O=C(c1ccc(Cl)cc1)c1ccc(OCC(O)CN2CCOCC2)cc1 (stereo unspecified) | inconclusive: -49.1%
36 | Cc1cc(C)cc(N(C(=O)CNS(=O)(=O)c2ccccc2)C(C(=O)NCc2ccccc2)c2ccc(C)o2)c1 (stereo unspecified) | inconclusive: -63.4%
37 | CCN(CC)S(=O)(=O)c1ccc(OC)c(NS(=O)(=O)c2ccc(F)cc2)c1 | inconclusive: -58.8%
38 | O=C1c2ccccc2C(=O)C1Cc1cccc2ccccc12 | inconclusive: -30.1%

Row | Structure (SMILES) | activity change (PNC), negative = inhibition
39 | N#CC1=C(N)NC(SCC(=O)c2ccccc2)=C(C#N)C12CCCC2 | inactive: 54.2%
40 | COc1ccc(S(=O)(=O)Nc2nnc(C)s2)cc1 | inactive: 6.71%
41 | CC(C)C[C@H](NC(=O)Nc1cccc(Cl)c1)C(=O)O | inconclusive: -51.2%
42 | COc1ccc(NC(=O)c2ccc(-c3ccccc3C(F)(F)F)o2)cc1 | active: -100%
43 | COCCCNC(=S)Nc1ccccc1C | inconclusive: -51.1%
44 | O=C(NCC(=O)N(c1cccc(F)c1)C(C(=O)NCC1CCCO1)c1ccccc1)c1ccco1 (stereo unspecified) | inconclusive: -61.3%
45 | COC(=O)c1cc2oc3ccccc3c2n1CC(=O)N1CCCc2ccccc21 | inactive: 7.11%
46 | O=C(N/N=C/c1cccc(F)c1)c1c(O)c2c([nH]c1=O)CCCC2 | active: -114%
47 | Cc1ccn2c(NC(=O)c3cccs3)c(-c3ccccc3)nc2c1 | inconclusive: -52.1%
48 | [N-]=[N+]=NC1C[C@H](n2ccc(=O)[nH]c2=O)O[C@@H]1CO (stereo partly specified) | inconclusive: -42.5%
49 | Cc1cc2nc(Sc3c([N+](=O)[O-])nc(C)n3Cc3ccccc3)[nH]c2cc1C | inconclusive: -53.1%
50 | O=C(CCc1nc2ccccc2c(=O)[nH]1)N1CCN(C/C=C/c2ccccc2)CC1 | inactive: 8.68%
51 | CC(=O)c1cccc(N=Nc2c(C)[nH]c3ccccc23)c1 | inactive: -15.3%
52 | CC1(C)CC(=O)C(C=NCCN2CCN(CC(=O)Nc3ccccc3)CC2)=C(O)C1 | inactive: -22.8%
53 | Cc1ccc2nc(Cl)c(CN(Cc3cccs3)C(=O)C3CC3)cc2c1 | inconclusive: -65.8%
54 | CCOc1ccc(C(=O)Nc2ccccc2C#N)cc1[N+](=O)[O-] | inconclusive: -53.4%
55 | CC1CCCN(CCCCOc2cccc(Br)c2)C1 (stereo unspecified) | inconclusive: -69.3%
56 | O=C(COC(=O)C1CCN(S(=O)(=O)c2cccs2)CC1)c1cc2ccccc2o1 | inconclusive: -36.1%

Reprinted at random: 4 entries already listed.
Row | Structure (SMILES) | activity change (PNC), negative = inhibition
47 | Cc1ccn2c(NC(=O)c3cccs3)c(-c3ccccc3)nc2c1 | inconclusive: -52.1%
40 | COc1ccc(S(=O)(=O)Nc2nnc(C)s2)cc1 | inactive: 6.71%
41 | CC(C)C[C@H](NC(=O)Nc1cccc(Cl)c1)C(=O)O | inconclusive: -51.2%
45 | COC(=O)c1cc2oc3ccccc3c2n1CC(=O)N1CCCc2ccccc21 | inactive: 7.11%
